The list shows a part of the results. Single values are uncertain, as repeats are few or missing.
tested on: Geomyces destructans; experiment: growth inhibition relative to DMSO control; higher = stronger growth inhibition; settings: 10 µM; 15 °C; incubation time 10 days

Row | SMILES | growth inhibition [%]
1 | Cc1cc(=O)c2c(O)c3c(cc2o1)OCC(C)CC3 (centres undefined) | 2.83
2 | CCN(CC)CCOCCOC(=O)C1(c2ccccc2)CCCC1 | -6.23
3 | CC(C)C[C@@H](NC(=O)OCC1c2ccccc2-c2ccccc21)C(=O)O | -10
4 | Cc1cc(C(C)(C)C)cc(C)c1CC1=NCCN1 | -26.2
5 | CCN(CCCCOC(=O)c1ccc(OC)c(OC)c1)C(C)Cc1ccc(OC)cc1 (centres undefined) | -41
6 | O=C(Oc1cc(O)cc2c1C[C@@H](OC(=O)c1cc(O)c(O)c(O)c1)[C@@H](c1cc(O)c(O)c(O)c1)O2)c1cc(O)c(O)c(O)c1 | -22.3
7 | COc1ccc(-c2coc3c(OC)c(OC)cc(OC)c3c2=O)cc1 | 1.69
8 | CCCCCCOc1ccccc1C(N)=O | -3.79
9 | NC[C@H](O)c1ccc(O)c(O)c1 | -30.1
10 | CCN(CC)CCNC(=O)c1ccc(N)cc1 | -22.2
11 | Cc1ccc(-c2cc(C(F)(F)F)nn2-c2ccc(S(N)(=O)=O)cc2)cc1 | 1.7
12 | COC(=O)C[C@H]1C(C)(C)C2(Cl)O[C@@]34CC2C(=O)[C@]1(C)C3CC[C@]1(C)C4=CC(=O)O[C@H]1c1ccoc1 (stereo partly drawn) [3-CHLORO-8beta-HYDROXYCARAPIN, 3,8-HEMIACETAL] | -8.86
13 | CC(C)[N+]1(C)[C@@H]2CC[C@H]1C[C@@H](OC(=O)C(CO)c1ccccc1)C2 (some centres undefined) | 1.31
14 | COc1cc2ccc(=O)oc2c(O)c1O | -14.2
15 | O=c1c(-c2ccc3c(c2)OCO3)coc2cc(O)ccc12 | 3.82
16 | Nc1ccc(S(=O)(=O)Nc2nccs2)cc1 | -0.218
17 | COC(=O)C(O)c1ccccc1 (centres undefined) | 84.2
18 | COc1cc2c(cc1/C=C/C(=O)c1cc(OC)c(OC)cc1OC)OCO2 | -4.09
19 | CCOC(=O)C(Cc1ccc(O)cc1)NC(C)=O (centres undefined) | -11.1
20 | CC[C@H]1OC(=O)[C@H](C)[C@@H](O[C@H]2C[C@@](C)(OC)[C@@H](O)[C@H](C)O2)[C@H](C)[C@@H](O[C@@H]2O[C@H](C)C[C@H](N(C)C)[C@H]2O)[C@](C)(O)C[C@@H](C)CN(C)[C@H](C)[C@@H](O)[C@]1(C)O | -35.3
21 | C[C@@H]1CCC[C@H](C)N1NC(=O)c1ccc(Cl)c(S(N)(=O)=O)c1 | 1.28
22 | O=C(/C=C/c1ccc(O)c(O)c1)O[C@H](Cc1ccc(O)c(O)c1)C(=O)O | -12.2
23 | COc1cccc2c1CCC1CC(=O)CC[C@]21C (some centres undefined) | -3.17
24 | C=C1C2CCC3(C)C(c4ccoc4)OC(=O)CC13OC1CC(=O)C(C)(C)C(CC(=O)OC)C12C (centres undefined) | 1.25
25 | O=C(O)c1c2ccccc2cc2ccccc12 | -7.65

Three structures out of the list, arranged by molar mass, descending.
Row | SMILES | growth inhibition [%]
24 | C=C1C2CCC3(C)C(c4ccoc4)OC(=O)CC13OC1CC(=O)C(C)(C)C(CC(=O)OC)C12C (centres undefined) | 1.25
21 | C[C@@H]1CCC[C@H](C)N1NC(=O)c1ccc(Cl)c(S(N)(=O)=O)c1 | 1.28
15 | O=c1c(-c2ccc3c(c2)OCO3)coc2cc(O)ccc12 | 3.82

(further entries)

Row | SMILES | growth inhibition [%]
26 | CO/N=C(\C(=O)N[C@@H]1C(=O)N2C(C(=O)O)=C(COC(C)=O)CS[C@H]12)c1csc(N)n1 | 5.24
27 | O=C(O)[C@@H]1[C@H]2C[C@H]3c4[nH]c5ccccc5c4CCN3C[C@@H]2CC[C@@H]1O | -4.71
28 | COc1cc(CNC(=O)CCCC/C=C/C(C)C)ccc1O | -1.95
29 | CC(=O)O[C@@H]1CC2C(C)(C)CCC[C@]2(C)C2CC[C@]3(C)C(=CC(=O)O[C@H]3c3ccoc3)[C@@]21C (some centres undefined) | 2.83
30 | CC(=O)Nc1c(I)cc(I)c(C(=O)O)c1I | -17.8
31 | CC(=O)O[C@]1(C)CC[C@@]23C[C@H]1C(C)(C)[C@@H]2CC[C@H]3C | -1.69
32 | Cc1cc2cc3c(C)cc(=O)oc3c(C)c2o1 | -29.5
33 | CC(=O)Nc1nnc(S(N)(=O)=O)s1 | -34
34 | CC(C)Oc1ccc2c(=O)c(-c3ccccc3)coc2c1 | -43.1
35 | C[N+](C)(C)CC(O)CC(=O)[O-] (centres undefined) | -5.42
36 | CC(=O)O[C@@H]1/C=C/[C@@](C)(O)C(=O)[C@@H](C)C/C=C/[C@H]2[C@@H]3O[C@]3(C)[C@@H](C)[C@H]3[C@H](Cc4ccccc4)NC(=O)[C@@]312 | -8.58
37 | COc1cc(O)c2c(=O)cc(C)oc2c1CC=C(C)C | -10.4
38 | OC[C@@H](O)[C@@H](O[C@@H]1O[C@H](CO)[C@@H](O)[C@H](O)[C@H]1O)[C@H](O)[C@@H](O)CO | -31.2
39 | Nc1ncnc2c1ncn2[C@@H]1O[C@H](CO)[C@@H](O)[C@@H]1O | -25.6
40 | O=c1[nH]cnc2nc[nH]c12 | -6.51
41 | C[C@@](Cc1ccc(O)c(O)c1)(NN)C(=O)O | -14.4
42 | CC(=O)OC1CC(O)C(C)(C)C2CC(=O)C3(C)C(CCC4(C)C(c5ccoc5)OC(=O)C5OC543)C12C (centres undefined) | 0.74
43 | CN(C)CCC(c1ccc(Br)cc1)c1ccccn1 (centres undefined) | -9.19
44 | NC[C@@H]1O[C@H](O[C@H]2[C@@H](O)[C@H](O[C@@H]3[C@@H](O)[C@H](N)C[C@H](N)[C@H]3O[C@H]3O[C@H](CO)[C@@H](O)C[C@H]3N)O[C@@H]2CO)[C@H](N)[C@@H](O)[C@@H]1O[C@H]1O[C@H](CO)[C@@H](O)[C@H](O)[C@@H]1O | -8.69
45 | Oc1c(Cl)cc(Cl)c2cccnc12 | 80.5
46 | N#Cc1ccc2c(c1)N(CCCN1CCC(O)CC1)c1ccccc1S2 | -34.1
47 | CCC1(c2ccccc2)C(=O)NCNC1=O | -19
48 | NC(Cn1ccc(=O)c(O)c1)C(=O)O (centres undefined) | -8.04
49 | CC(C)NCC(O)COc1ccc(CC(N)=O)cc1 (centres undefined) | -22.9

From the supplement of paper PMC3047530
